Laboratory results published in the supplement of paper PMC10849652.
The other results are listed elsewhere or left out.

The chains behind the UniProt entries cited, without tags or fusion partners. Where a name states a change or a piece, a line headed by the entry shows the natural chain unless it says otherwise.
UniProt P39059: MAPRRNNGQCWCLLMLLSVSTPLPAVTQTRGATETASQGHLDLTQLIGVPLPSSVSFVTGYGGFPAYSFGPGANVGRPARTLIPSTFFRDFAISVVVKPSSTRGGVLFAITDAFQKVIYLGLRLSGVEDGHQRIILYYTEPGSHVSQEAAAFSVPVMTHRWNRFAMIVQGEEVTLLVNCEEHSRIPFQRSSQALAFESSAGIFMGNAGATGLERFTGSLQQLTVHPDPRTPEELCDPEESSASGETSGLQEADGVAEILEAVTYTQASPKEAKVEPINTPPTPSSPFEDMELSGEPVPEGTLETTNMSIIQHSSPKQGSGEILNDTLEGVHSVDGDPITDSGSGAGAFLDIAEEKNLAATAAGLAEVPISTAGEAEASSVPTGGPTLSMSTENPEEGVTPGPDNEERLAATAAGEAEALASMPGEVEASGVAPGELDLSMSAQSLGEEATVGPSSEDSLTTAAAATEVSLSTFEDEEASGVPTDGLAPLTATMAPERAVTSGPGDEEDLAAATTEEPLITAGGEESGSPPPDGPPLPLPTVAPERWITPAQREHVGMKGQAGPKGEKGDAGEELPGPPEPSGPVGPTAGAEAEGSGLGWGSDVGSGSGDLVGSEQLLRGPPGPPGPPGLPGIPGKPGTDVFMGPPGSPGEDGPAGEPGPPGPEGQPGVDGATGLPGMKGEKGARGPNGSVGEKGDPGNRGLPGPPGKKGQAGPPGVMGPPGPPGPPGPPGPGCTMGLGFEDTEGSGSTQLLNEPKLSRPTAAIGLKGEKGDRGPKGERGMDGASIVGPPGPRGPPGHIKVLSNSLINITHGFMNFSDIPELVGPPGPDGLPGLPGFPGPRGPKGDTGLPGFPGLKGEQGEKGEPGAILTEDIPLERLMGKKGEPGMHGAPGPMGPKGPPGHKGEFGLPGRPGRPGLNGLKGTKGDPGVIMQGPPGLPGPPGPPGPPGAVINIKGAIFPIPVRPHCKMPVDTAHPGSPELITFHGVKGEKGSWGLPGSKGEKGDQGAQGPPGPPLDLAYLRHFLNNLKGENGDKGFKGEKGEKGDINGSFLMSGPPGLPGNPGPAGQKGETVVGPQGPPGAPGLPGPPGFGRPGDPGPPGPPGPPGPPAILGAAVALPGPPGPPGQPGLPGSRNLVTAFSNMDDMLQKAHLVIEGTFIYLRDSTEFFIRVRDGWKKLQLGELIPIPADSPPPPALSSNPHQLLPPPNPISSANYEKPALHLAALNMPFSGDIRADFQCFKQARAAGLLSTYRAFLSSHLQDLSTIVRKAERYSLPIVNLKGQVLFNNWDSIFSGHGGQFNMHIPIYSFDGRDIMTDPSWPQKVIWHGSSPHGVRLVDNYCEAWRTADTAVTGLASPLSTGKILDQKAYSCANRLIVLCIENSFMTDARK
UniProt Q99828: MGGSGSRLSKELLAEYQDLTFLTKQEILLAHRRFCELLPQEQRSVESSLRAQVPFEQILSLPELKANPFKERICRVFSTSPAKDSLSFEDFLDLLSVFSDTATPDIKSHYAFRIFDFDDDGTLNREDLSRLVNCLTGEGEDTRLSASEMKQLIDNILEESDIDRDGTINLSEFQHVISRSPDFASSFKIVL
UniProt O15247: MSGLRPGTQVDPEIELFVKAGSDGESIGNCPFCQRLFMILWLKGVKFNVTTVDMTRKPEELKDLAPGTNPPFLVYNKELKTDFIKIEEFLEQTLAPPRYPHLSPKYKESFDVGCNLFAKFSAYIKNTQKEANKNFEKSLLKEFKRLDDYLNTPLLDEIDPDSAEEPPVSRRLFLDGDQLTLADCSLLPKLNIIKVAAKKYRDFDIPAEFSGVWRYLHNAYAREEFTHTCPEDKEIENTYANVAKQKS
UniProt Q6PJW8: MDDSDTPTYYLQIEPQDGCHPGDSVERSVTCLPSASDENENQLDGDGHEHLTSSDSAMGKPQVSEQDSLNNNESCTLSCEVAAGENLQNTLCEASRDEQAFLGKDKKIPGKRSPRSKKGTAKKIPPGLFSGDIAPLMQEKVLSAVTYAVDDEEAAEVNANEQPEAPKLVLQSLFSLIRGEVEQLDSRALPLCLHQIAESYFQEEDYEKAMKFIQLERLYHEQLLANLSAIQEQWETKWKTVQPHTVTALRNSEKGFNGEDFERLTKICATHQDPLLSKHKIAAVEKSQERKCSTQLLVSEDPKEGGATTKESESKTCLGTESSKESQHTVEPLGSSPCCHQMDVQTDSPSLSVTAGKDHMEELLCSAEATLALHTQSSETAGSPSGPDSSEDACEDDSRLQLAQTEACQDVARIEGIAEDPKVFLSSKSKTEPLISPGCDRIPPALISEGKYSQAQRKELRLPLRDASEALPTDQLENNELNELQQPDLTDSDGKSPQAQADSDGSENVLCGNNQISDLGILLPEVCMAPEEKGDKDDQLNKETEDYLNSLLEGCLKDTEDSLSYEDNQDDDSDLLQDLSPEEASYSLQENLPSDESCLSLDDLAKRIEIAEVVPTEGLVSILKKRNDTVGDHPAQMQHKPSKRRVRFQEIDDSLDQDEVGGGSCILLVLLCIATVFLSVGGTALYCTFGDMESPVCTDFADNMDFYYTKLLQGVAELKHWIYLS
UniProt Q96DG6: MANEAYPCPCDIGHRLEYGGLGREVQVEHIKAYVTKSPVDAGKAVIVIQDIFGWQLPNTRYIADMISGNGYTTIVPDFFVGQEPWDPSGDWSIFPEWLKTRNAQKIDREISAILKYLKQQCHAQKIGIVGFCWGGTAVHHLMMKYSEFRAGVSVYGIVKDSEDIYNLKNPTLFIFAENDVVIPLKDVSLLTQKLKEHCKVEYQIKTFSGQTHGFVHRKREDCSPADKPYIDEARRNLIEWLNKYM
UniProt Q9P003: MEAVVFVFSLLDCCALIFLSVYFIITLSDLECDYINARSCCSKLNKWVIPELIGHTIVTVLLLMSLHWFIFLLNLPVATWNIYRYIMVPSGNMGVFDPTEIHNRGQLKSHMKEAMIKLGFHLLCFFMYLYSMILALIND
UniProt Q9H9A5, whole entry, looked up: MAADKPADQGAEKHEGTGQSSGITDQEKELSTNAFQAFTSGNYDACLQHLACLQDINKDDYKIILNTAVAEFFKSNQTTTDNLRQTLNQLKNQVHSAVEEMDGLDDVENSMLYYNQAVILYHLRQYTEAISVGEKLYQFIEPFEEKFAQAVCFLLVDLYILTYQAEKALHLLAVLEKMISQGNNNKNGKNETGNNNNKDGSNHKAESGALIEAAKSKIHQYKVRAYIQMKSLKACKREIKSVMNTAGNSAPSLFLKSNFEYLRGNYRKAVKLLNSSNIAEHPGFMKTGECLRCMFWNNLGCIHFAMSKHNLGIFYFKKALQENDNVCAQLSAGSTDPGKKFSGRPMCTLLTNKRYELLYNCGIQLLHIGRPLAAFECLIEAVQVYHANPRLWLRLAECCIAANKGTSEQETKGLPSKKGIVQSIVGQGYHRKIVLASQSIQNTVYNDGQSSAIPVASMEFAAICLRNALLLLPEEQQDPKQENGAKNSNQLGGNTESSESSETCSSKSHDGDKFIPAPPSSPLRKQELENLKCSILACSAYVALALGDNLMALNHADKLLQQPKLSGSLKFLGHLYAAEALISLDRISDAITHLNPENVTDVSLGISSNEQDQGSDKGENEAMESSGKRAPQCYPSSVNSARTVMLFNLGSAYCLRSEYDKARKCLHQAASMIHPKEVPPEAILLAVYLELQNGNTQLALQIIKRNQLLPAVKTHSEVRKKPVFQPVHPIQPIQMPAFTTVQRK
UniProt P05452, whole entry, looked up: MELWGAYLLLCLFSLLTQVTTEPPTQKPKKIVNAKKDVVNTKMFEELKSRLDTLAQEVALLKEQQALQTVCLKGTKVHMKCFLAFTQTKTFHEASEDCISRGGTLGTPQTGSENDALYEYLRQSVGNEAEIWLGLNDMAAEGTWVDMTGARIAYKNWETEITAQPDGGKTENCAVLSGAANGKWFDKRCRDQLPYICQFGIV
UniProt Q7Z7K0: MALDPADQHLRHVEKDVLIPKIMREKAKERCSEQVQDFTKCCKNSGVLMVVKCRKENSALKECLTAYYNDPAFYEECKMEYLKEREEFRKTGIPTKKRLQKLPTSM
UniProt P09543: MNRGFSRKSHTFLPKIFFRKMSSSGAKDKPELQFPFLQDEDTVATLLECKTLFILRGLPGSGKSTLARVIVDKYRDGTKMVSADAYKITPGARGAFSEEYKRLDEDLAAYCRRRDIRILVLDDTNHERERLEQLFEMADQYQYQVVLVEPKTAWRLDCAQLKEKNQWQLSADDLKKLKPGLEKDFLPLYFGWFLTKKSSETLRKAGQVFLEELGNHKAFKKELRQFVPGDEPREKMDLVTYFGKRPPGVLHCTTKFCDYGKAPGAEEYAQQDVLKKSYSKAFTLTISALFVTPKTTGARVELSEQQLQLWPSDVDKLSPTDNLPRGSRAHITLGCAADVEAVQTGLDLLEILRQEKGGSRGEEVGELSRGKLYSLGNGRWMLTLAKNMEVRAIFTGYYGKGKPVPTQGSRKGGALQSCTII
UniProt Q9Y2B0: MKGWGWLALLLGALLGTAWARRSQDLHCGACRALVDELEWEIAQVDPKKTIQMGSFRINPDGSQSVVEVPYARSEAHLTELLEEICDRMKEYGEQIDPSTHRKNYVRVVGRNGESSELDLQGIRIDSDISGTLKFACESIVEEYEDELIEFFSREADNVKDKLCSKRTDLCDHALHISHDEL
UniProt Q14011: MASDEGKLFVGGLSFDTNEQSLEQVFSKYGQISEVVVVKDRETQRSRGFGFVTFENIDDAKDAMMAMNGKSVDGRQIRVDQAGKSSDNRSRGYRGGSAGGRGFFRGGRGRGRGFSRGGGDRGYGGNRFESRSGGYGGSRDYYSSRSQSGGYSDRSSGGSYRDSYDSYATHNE
UniProt Q6FI81: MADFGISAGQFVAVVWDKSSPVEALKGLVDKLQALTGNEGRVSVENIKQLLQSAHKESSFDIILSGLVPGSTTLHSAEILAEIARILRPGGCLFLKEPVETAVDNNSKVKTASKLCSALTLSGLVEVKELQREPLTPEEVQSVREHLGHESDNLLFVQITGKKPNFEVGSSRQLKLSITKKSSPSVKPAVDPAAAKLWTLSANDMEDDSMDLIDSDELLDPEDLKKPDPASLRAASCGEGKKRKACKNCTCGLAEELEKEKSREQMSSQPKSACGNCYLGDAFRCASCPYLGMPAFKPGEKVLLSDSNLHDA
UniProt P30622: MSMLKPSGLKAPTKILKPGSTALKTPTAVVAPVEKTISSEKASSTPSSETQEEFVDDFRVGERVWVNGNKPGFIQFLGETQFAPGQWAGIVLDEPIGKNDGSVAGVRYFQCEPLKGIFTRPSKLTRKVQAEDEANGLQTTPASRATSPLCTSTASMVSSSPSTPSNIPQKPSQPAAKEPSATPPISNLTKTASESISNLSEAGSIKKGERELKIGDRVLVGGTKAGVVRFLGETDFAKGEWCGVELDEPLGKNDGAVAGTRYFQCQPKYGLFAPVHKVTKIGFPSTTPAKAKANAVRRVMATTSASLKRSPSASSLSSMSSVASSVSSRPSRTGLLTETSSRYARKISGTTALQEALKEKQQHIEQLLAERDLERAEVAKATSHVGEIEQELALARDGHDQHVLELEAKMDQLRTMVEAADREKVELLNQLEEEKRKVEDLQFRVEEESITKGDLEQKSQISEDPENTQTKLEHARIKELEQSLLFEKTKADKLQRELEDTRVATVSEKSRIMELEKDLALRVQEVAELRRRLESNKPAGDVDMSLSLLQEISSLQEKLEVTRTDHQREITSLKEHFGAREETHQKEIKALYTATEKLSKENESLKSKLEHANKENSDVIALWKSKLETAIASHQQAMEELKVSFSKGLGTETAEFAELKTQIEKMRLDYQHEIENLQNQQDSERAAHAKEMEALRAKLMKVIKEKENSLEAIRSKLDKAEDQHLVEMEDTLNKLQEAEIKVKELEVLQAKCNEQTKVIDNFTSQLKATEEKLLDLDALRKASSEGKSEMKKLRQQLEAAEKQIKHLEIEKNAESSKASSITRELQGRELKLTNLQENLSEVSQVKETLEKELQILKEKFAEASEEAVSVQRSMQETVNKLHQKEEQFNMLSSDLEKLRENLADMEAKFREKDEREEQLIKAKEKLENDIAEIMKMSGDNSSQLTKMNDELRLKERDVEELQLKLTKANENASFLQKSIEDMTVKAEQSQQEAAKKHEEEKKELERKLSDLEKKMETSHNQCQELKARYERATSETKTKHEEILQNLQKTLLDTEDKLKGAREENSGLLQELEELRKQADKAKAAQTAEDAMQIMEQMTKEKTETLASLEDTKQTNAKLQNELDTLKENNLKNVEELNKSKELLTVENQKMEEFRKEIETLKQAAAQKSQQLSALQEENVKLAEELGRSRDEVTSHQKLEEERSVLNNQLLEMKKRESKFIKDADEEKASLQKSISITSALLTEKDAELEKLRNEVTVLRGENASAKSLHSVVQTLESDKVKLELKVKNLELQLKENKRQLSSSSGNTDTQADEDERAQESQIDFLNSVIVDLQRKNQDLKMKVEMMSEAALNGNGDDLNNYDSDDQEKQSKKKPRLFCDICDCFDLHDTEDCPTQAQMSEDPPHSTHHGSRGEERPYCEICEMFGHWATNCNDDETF

What was measured:
Assay in all cases: log2 fold change, soluble protein after heating vs DMSO (PISA); higher = thermal stabilisation; K562 cells, 10 uM, 30 min; active = over 0.2 and 3.5 SD of the protein, either way, in both replicates (recomputed)
saracatinib = compound: CN1CCN(CCOc2cc(OC3CCOCC3)c3c(Nc4c(Cl)ccc5c4OCO5)ncnc3c2)CC1 [saracatinib]
In short: (§1)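 Values are thermal stability changes relative to control samples and are taken from duplicates. They are stated as log2 fold changes. Before quantification by TMTpro 16plex LC-MS/MS with equalised channel sums, K562 cells at 2×10^6 cells/mL were treated with 10 μM compound for 30 min, heated in aliquots for 3 min across 48°C-58°C, pooled, extracted in PBS with 0.5% NP-40 at 4°C, and centrifuged at 21,000xg for 90 min to give the soluble supernatant.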

sotrastaurin = compound: CN1CCN(c2nc(C3=C(c4c[nH]c5ccccc45)C(=O)NC3=O)c3ccccc3n2)CC1 [sotrastaurin]
In short: as §1

alvocidib = compound: CN1CC[C@H](c2c(O)cc(O)c3c(=O)cc(-c4ccccc4Cl)oc23)[C@H](O)C1 [alvocidib]
In short: as §1

Tubastatin A = compound: CN1CCc2c(c3ccccc3n2Cc2ccc(C(=O)NO)cc2)C1 [Tubastatin A]
In short: as §1

[1] = compound: CNC(=O)C1=CC=CC=C1NC2=NC(=NC=C2Cl)NC3=C(C=C(C=C3)N4CCOCC4)OC
In short: as §1

defactinib = compound: CNC(=O)c1ccc(Nc2ncc(C(F)(F)F)c(NCc3nccnc3N(C)S(C)(=O)=O)n2)cc1 [defactinib]
In short: as §1

rucaparib = compound: CNCc1ccc(-c2[nH]c3cc(F)cc4c3c2CCNC4=O)cc1 [rucaparib]
In short: as §1

[2] = compound: CNc1nc(-c2ccc3c(N)n[nH]c3c2)cc(N2C[C@@H](C(=O)NC3CCCCC3)CC[C@H]2C)n1
In short: as §1

encorafenib = compound: COC(=O)N[C@@H](C)CNc1nccc(-c2cn(C(C)C)nc2-c2cc(Cl)cc(NS(C)(=O)=O)c2F)n1 [encorafenib]
In short: as §1

[3] = compound: COC(=O)[C@H](CCSC)NC(=O)C1=C(C=C(C=C1)NC[C@H](CS)N)C2=CC=CC=C2
In short: as §1

Measured: log2 fold change

COL15A1 (UniProt P39059)
inactive: saracatinib -0.236 | sotrastaurin 0.051 | alvocidib 0.005 | Tubastatin A -0.03 | [1] -0.014 | defactinib -0.015 | rucaparib 0.075 | [2] 0.103 | encorafenib 0.069 | [3] 0.05

CNOT11 (UniProt Q9UKZ1)
inactive: saracatinib 0.068 | sotrastaurin -0.04 | alvocidib 0.034 | Tubastatin A -0.106 | [1] 0.015 | defactinib 0.002 | rucaparib 0.211 | [2] -0.053 | encorafenib 0.03 | [3] 0.039

CMPK1 (UniProt P30085)
inactive: saracatinib -0.019 | sotrastaurin 0.013 | alvocidib -0.012 | Tubastatin A -0.044 | [1] -0.007 | defactinib -0.012 | rucaparib 0.026 | [2] -0.033 | encorafenib -0.012 | [3] -0.003

CNPY3 (UniProt Q9BT09)
inactive: saracatinib 0.013 | sotrastaurin 0.092 | alvocidib -0.084 | Tubastatin A -0.012 | [1] 0.055 | defactinib 0.008 | rucaparib -0.046 | [2] -0.019 | encorafenib -0.017 | [3] 0.075

CIB1 isoform 2 (UniProt Q99828)
inactive: saracatinib -0.03 | sotrastaurin -0.071 | alvocidib -0.025 | Tubastatin A -0.017 | [1] -0.031 | defactinib 0.012 | rucaparib 0.058 | [2] -0.024 | encorafenib -0.007 | [3] 0.053

CLIC2 (UniProt O15247)
inactive: saracatinib -0.042 | sotrastaurin -0.092 | alvocidib -0.132 | Tubastatin A 0.035 | [1] -0.032 | defactinib -0.114 | rucaparib 0.059 | [2] 0.061 | encorafenib 0.102 | [3] -0.04

CNST (UniProt Q6PJW8)
inactive: saracatinib 0.022 | sotrastaurin -0.031 | alvocidib -0.043 | Tubastatin A -0.019 | [1] 0.004 | defactinib -0.036 | rucaparib -0.012 | [2] -0.02 | encorafenib -0.023 | [3] 0.088

CMPK2 (UniProt Q5EBM0)
inactive: saracatinib 0.013 | sotrastaurin -0.006 | alvocidib -0.07 | Tubastatin A -0.005 | [1] 0.008 | defactinib -0.035 | rucaparib -0.006 | [2] 0.004 | encorafenib 0.031 | [3] 0

COL1A2 (UniProt P08123)
inactive: saracatinib 0.414 | sotrastaurin 0.096 | alvocidib 0.063 | Tubastatin A -0.054 | [1] -0.34 | defactinib -0.037 | rucaparib -0.15 | [2] 0.142 | encorafenib 0.069 | [3] 0.222

CMBL (UniProt Q96DG6)
inactive: saracatinib -0.012 | sotrastaurin 0.053 | alvocidib 0.02 | Tubastatin A 0.15 | [1] -0.022 | defactinib -0.005 | rucaparib -0.035 | [2] -0.02 | encorafenib -0.051 | [3] -0.007

CKM (UniProt P06732)
inactive: saracatinib -0.064 | sotrastaurin -0.106 | alvocidib -0.099 | Tubastatin A -0.043 | [1] -0.003 | defactinib -0.017 | rucaparib 0.003 | [2] 0.113 | encorafenib 0.019 | [3] 0.029

CNNM4 (UniProt Q6P4Q7)
inactive: saracatinib 0.232 | sotrastaurin 0.043 | alvocidib -0.039 | Tubastatin A 0.04 | [1] -0.012 | defactinib -0.106 | rucaparib 0.106 | [2] 0.055 | encorafenib -0.098 | [3] 0.004

CNIH4 (UniProt Q9P003)
inactive: saracatinib 0.195 | sotrastaurin 0.023 | alvocidib -0.037 | Tubastatin A -0.025 | [1] -0.315 | defactinib 0.018 | rucaparib -0.044 | [2] -0.023 | encorafenib -0.145 | [3] 0.042

CNOT10 isoform 6 (UniProt Q9H9A5)
inactive: saracatinib 0.04 | sotrastaurin -0.065 | alvocidib 0.028 | Tubastatin A 0.007 | [1] 0.013 | defactinib -0.03 | rucaparib 0.053 | [2] 0.001 | encorafenib 0.07 | [3] -0.013

CIAO3 (UniProt Q9H6Q4)
inactive: saracatinib -0.06 | sotrastaurin 0.04 | alvocidib -0.091 | Tubastatin A 0.013 | [1] -0.07 | defactinib -0.049 | rucaparib -0.021 | [2] -0.029 | encorafenib 0.004 | [3] -0.03

CLEC3B (UniProt P05452)
inactive: saracatinib 0.029 | sotrastaurin 0.342 | alvocidib 0.145 | Tubastatin A -0.137 | [1] -0.12 | defactinib 0.112 | rucaparib -0.021 | [2] -0.054 | encorafenib 0.005 | [3] 0.147

CMC1 (UniProt Q7Z7K0)
inactive: saracatinib 0.128 | sotrastaurin 0.004 | alvocidib 0.159 | Tubastatin A -0.013 | [1] -0.001 | defactinib 0 | rucaparib -0.027 | [2] -0.178 | encorafenib -0.048 | [3] 0.173

CLTC (UniProt Q00610)
inactive: saracatinib 0.209 | sotrastaurin -0.083 | alvocidib 0.182 | Tubastatin A -0.046 | [1] 0.174 | defactinib 0.082 | rucaparib 0.029 | [2] -0.036 | encorafenib 0.04 | [3] -0.04

CMTM6 (UniProt Q9NX76)
inactive: saracatinib 0.052 | sotrastaurin -0.043 | alvocidib 0.01 | Tubastatin A -0.086 | [1] -0.024 | defactinib -0.112 | rucaparib 0.189 | [2] -0.023 | encorafenib -0.1 | [3] -0.116

CNOT9 isoform 2 (UniProt Q92600)
inactive: saracatinib 0.012 | sotrastaurin -0.025 | alvocidib -0.055 | Tubastatin A -0.012 | [1] 0.014 | defactinib -0.023 | rucaparib 0.046 | [2] 0.004 | encorafenib 0.076 | [3] -0.014

CLEC16A (UniProt Q2KHT3)
inactive: saracatinib -0.007 | sotrastaurin 0.012 | alvocidib 0.034 | Tubastatin A 0.054 | [1] -0.012 | defactinib -0.006 | rucaparib -0.111 | [2] 0.013 | encorafenib 0.001 | [3] 0.009

CNP (UniProt P09543)
inactive: saracatinib 0.003 | sotrastaurin 0.042 | alvocidib -0.024 | Tubastatin A 0.015 | [1] -0.061 | defactinib 0.011 | rucaparib -0.005 | [2] -0.03 | encorafenib 0.014 | [3] -0.01

CLIP4 (UniProt Q8N3C7)
inactive: saracatinib -0.018 | sotrastaurin 0.103 | alvocidib -0.02 | Tubastatin A -0.054 | [1] -0.01 | defactinib 0.012 | rucaparib -0.009 | [2] -0.045 | encorafenib -0.028 | [3] 0.045

Two records picked at random from those above:
CLIP4 (UniProt Q8N3C7)
inactive: saracatinib -0.018 | sotrastaurin 0.103 | alvocidib -0.02 | Tubastatin A -0.054 | [1] -0.01 | defactinib 0.012 | rucaparib -0.009 | [2] -0.045 | encorafenib -0.028 | [3] 0.045

CNOT9 isoform 2 (UniProt Q92600)
inactive: saracatinib 0.012 | sotrastaurin -0.025 | alvocidib -0.055 | Tubastatin A -0.012 | [1] 0.014 | defactinib -0.023 | rucaparib 0.046 | [2] 0.004 | encorafenib 0.076 | [3] -0.014

Additional entries.

CNPY2 (UniProt Q9Y2B0)
inactive: saracatinib -0.009 | sotrastaurin 0.069 | alvocidib -0.092 | Tubastatin A -0.035 | [1] 0.001 | defactinib 0.05 | rucaparib -0.037 | [2] -0.058 | encorafenib -0.001 | [3] -0.003

CLGN (UniProt O14967)
inactive: saracatinib -0.074 | sotrastaurin -0.049 | alvocidib -0.012 | Tubastatin A 0.007 | [1] 0.154 | defactinib -0.003 | rucaparib 0.002 | [2] 0.04 | encorafenib -0.003 | [3] 0.032

CISD1 (UniProt Q9NZ45)
inactive: saracatinib 0.035 | sotrastaurin 0.049 | alvocidib -0.014 | Tubastatin A -0.039 | [1] 0.021 | defactinib -0.023 | rucaparib 0.012 | [2] -0.045 | encorafenib -0.019 | [3] 0.029

CIRBP isoform 2 (UniProt Q14011)
inactive: saracatinib -0.048 | sotrastaurin 0.112 | alvocidib 0.155 | Tubastatin A 0.003 | [1] 0.001 | defactinib 0.245 | rucaparib 0.212 | [2] 0.016 | encorafenib 0.148 | [3] 0.002

CIAPIN1 (UniProt Q6FI81)
inactive: saracatinib -0.009 | sotrastaurin -0.03 | alvocidib -0.073 | Tubastatin A -0.002 | [1] 0.018 | defactinib -0.084 | rucaparib -0.102 | [2] -0.002 | encorafenib 0.03 | [3] -0.032

CLIP1 isoform 1 (UniProt P30622)
inactive: saracatinib 0.059 | sotrastaurin 0.022 | alvocidib -0.028 | Tubastatin A -0.02 | [1] 0.003 | defactinib -0.009 | rucaparib -0.037 | [2] -0.012 | encorafenib -0.044 | [3] 0.025
